Results of single-concentration screens

Measurements from “University of Dundee, Small-Polar-MMV Screening Library” (2021), ChEMBL document CHEMBL3988442.

The filed quantity is “Percent Effect” (%). The controls that fix the scale are not given in the record; negative values are as filed. The compounds are a random part of those screened.

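Assay of Toxoplasma gondii numbers, read through their beta-galactosidase reporter with a colour substrate. Concentration: 50 µM. The record gives no direction; the compounds picked for IC50 retests had high values, so higher reads as fewer parasites. Size under these conditions: about 18,000 compounds, about 170 of them at 50% or above in at least one test.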

For CCOc1cc(CNC)cc(Cl)c1OCC(N)=O the result was 1.923%.
For CN(C)C(=O)N1CCN(CC(O)c2ccccc2)CC1 (centres undefined) the result was -3.94%.
For N#Cc1c(F)cccc1NCC1(O)CCS(=O)(=O)CC1 the result was -0.8532%.
For NC1CCCc2occc21 (centres undefined) the result was -9.564%.
For Cc1cc(NC(=O)CN(C)C)ccc1OCCO the result was 2.383%.
For COc1ccc(OCCSCC(=O)NCCC#N)cc1 the result was 4.375%.
For COc1ccc(CN(C)C(=O)C2CC2)cc1F the result was 5.333%.
For NCc1cnc2sccn12 the result was -12.55%.
For CCN(CC(N)=O)C(C)c1cccc(OC)c1 (centres undefined) the result was 14.55%.
For COC(=O)c1cnn(-c2ccccc2)n1 the result was 1.963%.
For O=C1OCCC12CCNC2 (centres undefined) the result was -25.71%.
For Cn1cc(S(=O)(=O)NCc2noc(C(F)(F)F)n2)cn1 the result was -2.869%.
For O=S(=O)(CCNCc1ccsc1)N1CCOCC1 the result was -3.823%.
For CC1CN(C)c2ccccc2CN1C(=O)c1cc[nH]n1 (centres undefined) the result was -31.41%.
For CC(C)CNC(=O)CNC(=O)NCC1(C)CCCC1 the result was 4.052%.
For CCCC(N)C(=O)N1CCC(N2CCCCC2=O)CC1 (centres undefined) the result was -4.255%.
For CS(=O)(=O)CC1(CNc2ccc(C#N)cn2)CC1 the result was 3.413%.
For CS(=O)(=O)NCCC(=O)N1CCc2ccccc2C1 the result was 17.91%.
For O=C(c1ccc(C2CCCNC2)cc1)N1CCSCC1 (centres undefined) the result was 18.44%.
For COc1ccccc1CCC(=O)NCCC1CCOC1 (centres undefined) the result was -7.771%.
For COc1ccccc1CCNC(=O)CC1CCCO1 (centres undefined) the result was 27.99%.
For OCC1CCCN(Cc2ccc(O)cc2)C1 (centres undefined) the result was -8.05%.
For CC(NCC(=O)N1CCNC1=O)c1ccc(Cl)s1 (centres undefined) the result was -4.99%.
For O=C(OCC(F)(F)F)c1cccnc1 the result was -11.21%.
For O=C(c1cc(C2CC2)on1)N1CCC2(CCNCC2)C1 the result was 8.983%.
For CCNS(=O)(=O)c1ccc(CC(=O)N(C)C)cc1 the result was 10.46%.
For CN(C)CC1CCN(CC(=O)N(C)CC(F)(F)F)CC1 the result was 0.3404%.
For CCN(Cc1ccncc1)C(=O)C(C)C the result was -1.378%.
For CNCC(=O)Nc1cc(Cl)ccc1OC the result was -3.261%.

3 of the entries, repeated:

* N#Cc1c(F)cccc1NCC1(O)CCS(=O)(=O)CC1 : -0.8532%
* CS(=O)(=O)NCCC(=O)N1CCc2ccccc2C1 : 17.91%
* CCCC(N)C(=O)N1CCC(N2CCCCC2=O)CC1 (centres undefined) : -4.255%